Data from PubChem BioAssay AID328 (DTP/NCI, 2004).
The list does not hold the whole screen: its compounds were picked by chemical class. Other doses and runs of a compound may be missing. T/C gives the treated animals as a percentage of the vehicle group. For survival time, this PubChem deposit counts one and a half times the control or more as active, and values a quarter to a half above the control carry no call in these data; other NCI protocols may use other cut-offs. Some T/C values are marked as having no survivor count here; that says nothing about deaths at the dose. Schedules are NCI's codes, taken here to give the interval after Q, in days (D) or hours (H), and the number of doses after X. Marks such as (2×) give the number of equal values in this list. Some entries were tested several times; their values stand side by side, smallest first.

Test system: BDF1 mice, P388 leukemia ip, median survival T/C
Assay: NCI In Vivo Anticancer Drug Screen. Data for tumor model P388 Leukemia (intraperitoneal) in B6D2F1 (BDF1) mice
Settings: T/C endpoint: median survival time, higher T/C = longer survival
In short: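 In tumour-bearing mice, survival after compound treatment is set against the vehicle group and given as a quotient.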

[1] = dose: 2.0 mg/kg/injection, schedule: Q01DX009 (ip), vehicle: saline

NN(CCCl)CCCl
T/C (dose: 8.0 mg/kg/injection, schedule: Q04DX003 (ip), vehicle: saline with Tween-80): 145 % of control [survivor count not shown]
T/C (dose: 8.25 mg/kg/injection, schedule: Q04DX003 (ip), vehicle: saline with Tween-80): 154 % of control [survivor count not shown]
T/C (dose: 12.0 mg/kg/injection, schedule: Q04DX003 (ip), vehicle: saline with Tween-80): 240 % of control [survivor count not shown]
T/C (dose: 12.5 mg/kg/injection, schedule: Q04DX003 (ip), vehicle: saline with Tween-80): 236 % of control [survivor count not shown]
T/C (dose: 18.0 mg/kg/injection, schedule: Q04DX003 (ip), vehicle: saline with Tween-80): 272 % of control [survivor count not shown]
T/C (dose: 18.75 mg/kg/injection, schedule: Q04DX003 (ip), vehicle: saline with Tween-80): 272 % of control [survivor count not shown]

ClCCN(CCCl)CCc1ccccc1
T/C [1]: 180 % of control [survivor count not shown]
T/C (dose: 3.13 mg/kg/injection, schedule: Q01DX009 (ip), vehicle: saline): 230 % of control [survivor count not shown]
T/C (dose: 4.6 mg/kg/injection, schedule: Q01DX009 (ip), vehicle: saline): 215 % of control [survivor count not shown]

O=C(O)CN(CCCl)CCCl
T/C (dose: 0.31 mg/kg/injection, schedule: Q01DX010 (ip), vehicle: saline): 127 % of control [survivor count not shown] (2×)
T/C (dose: 0.62 mg/kg/injection, schedule: Q01DX010 (ip), vehicle: saline): 145 [survivor count not shown] and 154 % of control [survivor count not shown]
T/C (dose: 0.63 mg/kg/injection, schedule: Q01DX010 (ip), vehicle: saline): 195 [survivor count not shown] and 200 % of control [survivor count not shown]
T/C (dose: 1.25 mg/kg/injection, schedule: Q01DX010 (ip), vehicle: saline): 145 [survivor count not shown], 159 [survivor count not shown], 200 [survivor count not shown], 205 % of control [survivor count not shown]
T/C (dose: 2.5 mg/kg/injection, schedule: Q01DX010 (ip), vehicle: saline): 204 [survivor count not shown], 215 [survivor count not shown] (2×), 254 % of control [survivor count not shown]
T/C (dose: 5.0 mg/kg/injection, schedule: Q01DX010 (ip), vehicle: saline): 130 [survivor count not shown], 213 [survivor count not shown], 231 % of control [survivor count not shown]

Nc1ncnc2c1ncn2CCN(CCCl)CCCl
T/C (dose: 0.27 mg/kg/injection, schedule: Q01DX009 (ip), vehicle: saline): 144 % of control [survivor count not shown]
T/C (dose: 0.4 mg/kg/injection, schedule: Q01DX009 (ip), vehicle: saline): 126 % of control [survivor count not shown]
T/C (dose: 0.88 mg/kg/injection, schedule: Q04DX003 (ip), vehicle: saline): 122 % of control [survivor count not shown]
T/C (dose: 1.32 mg/kg/injection, schedule: Q04DX003 (ip), vehicle: saline): 145 % of control [survivor count not shown]
T/C (dose: 1.88 mg/kg/injection, schedule: Q01DX009 (ip), vehicle: saline): 181 % of control [survivor count not shown]
T/C [1]: 199 % of control [survivor count not shown]
T/C (dose: 2.0 mg/kg/injection, schedule: Q04DX003 (ip), vehicle: saline): 145 % of control [survivor count not shown]
T/C (dose: 3.0 mg/kg/injection, schedule: Q01DX009 (ip), vehicle: saline): 208 % of control [survivor count not shown]
T/C (dose: 3.0 mg/kg/injection, schedule: Q04DX003 (ip), vehicle: saline): 154 % of control [survivor count not shown]
T/C (dose: 3.3 mg/kg/injection, schedule: Q01DX009 (ip), vehicle: saline): 209 % of control [survivor count not shown]
T/C (dose: 3.75 mg/kg/injection, schedule: Q01DX009 (ip), vehicle: saline): 231 % of control [survivor count not shown]
T/C (dose: 4.5 mg/kg/injection, schedule: Q01DX009 (ip), vehicle: saline): 225 % of control [survivor count not shown]
T/C (dose: 5.0 mg/kg/injection, schedule: Q01DX009 (ip), vehicle: saline): 250 % of control [survivor count not shown]
T/C (dose: 7.5 mg/kg/injection, schedule: Q01DX009 (ip), vehicle: saline): 213 [survivor count not shown] and 281 % of control [survivor count not shown]

ClCCNC(CCl)CCl
T/C (dose: 12.5 mg/kg/injection, schedule: Q01DX009 (ip), vehicle: saline): 109 % of control [survivor count not shown]
T/C (dose: 25.0 mg/kg/injection, schedule: Q01DX009 (ip), vehicle: saline): 100 % of control [survivor count not shown]
T/C (dose: 50.0 mg/kg/injection, schedule: Q01DX009 (ip), vehicle: saline): 108 [survivor count not shown] and 109 % of control [survivor count not shown]
T/C (dose: 100.0 mg/kg/injection, schedule: Q04DX003 (ip), vehicle: saline): 123 % of control [survivor count not shown]

Cc1ccc2nc(CN(CCCl)CCCl)[nH]c2c1
T/C (dose: 1.78 mg/kg/injection, schedule: Q01DX009 (ip), vehicle: saline): 131 % of control [survivor count not shown]
T/C (dose: 2.66 mg/kg/injection, schedule: Q01DX009 (ip), vehicle: saline): 140 % of control [survivor count not shown]
T/C (dose: 4.0 mg/kg/injection, schedule: Q01DX009 (ip), vehicle: saline): 154 % of control [survivor count not shown]
T/C (dose: 5.3 mg/kg/injection, schedule: Q01DX009 (ip), vehicle: saline): 179 % of control [survivor count not shown]
T/C (dose: 6.0 mg/kg/injection, schedule: Q01DX009 (ip), vehicle: saline): 177 % of control [survivor count not shown]
T/C (dose: 6.25 mg/kg/injection, schedule: Q01DX001 (ip), vehicle: saline sonified): 124 % of control [survivor count not shown]
T/C (dose: 6.25 mg/kg/injection, schedule: Q04DX003 (ip), vehicle: saline): 117 % of control [survivor count not shown]
T/C (dose: 8.0 mg/kg/injection, schedule: Q01DX009 (ip), vehicle: saline): 179 % of control [survivor count not shown]
T/C (dose: 8.33 mg/kg/injection, schedule: Q04DX003 (ip), vehicle: saline): 145 % of control [survivor count not shown]
T/C (dose: 12.0 mg/kg/injection, schedule: Q01DX009 (ip), vehicle: saline): 200 % of control [survivor count not shown]
T/C (dose: 12.5 mg/kg/injection, schedule: Q01DX001 (ip), vehicle: saline sonified): 136 % of control [survivor count not shown]
T/C (dose: 12.5 mg/kg/injection, schedule: Q04DX003 (ip), vehicle: saline): 142 [survivor count not shown] and 177 % of control [survivor count not shown]
T/C (dose: 18.7 mg/kg/injection, schedule: Q04DX003 (ip), vehicle: saline): 186 % of control [survivor count not shown]
T/C (dose: 25.0 mg/kg/injection, schedule: Q01DX001 (ip), vehicle: saline sonified): 124 % of control [survivor count not shown]
T/C (dose: 25.0 mg/kg/injection, schedule: Q04DX003 (ip), vehicle: saline): 153 % of control [survivor count not shown]
